# Results as given in paper PMC12040169 (PLOS Biology, 2025).
# Some of the results follow.
# Tested on: T1, CTL2-GFP (C. trachomatis L2/434/Bu, GFP-expressing)
# T1 construct: L2/434/Bu, GFP-expressing
# Design: species or system HeLa; Intracellular C. trachomatis growth in HeLa cells, bulk GFP fluorescence relative to DMSO
# Conditions: bulk GFP, single well; 28.5 h, 10 µM; inhibitor
row,SMILES,% of control remaining
1,COc1ccc(CNC(=O)CC[C@H]2CNC(=O)[C@H]3NCC[C@H]3N2C)cc1 [CBK289025],130.504%
2,FC(F)(F)c1nc2ccccc2nc1SCc1ccccc1 [CBK103732],162.75%
3,Clc1nc(NCCN2CCOCC2)nc(N2CCCCCC2)n1 [CBK027412],113.601%
4,CCCCNc1nccnc1-c1ccccc1 [CBK088477],125.738%
5,CCOC(=O)C1CC2CCC1C[C@]21NC(=O)c2ccccc2N1 (some centres unmarked) [CBK284441],106.59%
6,Cc1cc(C)nc(NS(=O)(=O)c2ccc(NC(=O)N3c4ccccc4Sc4ccccc43)cc2)n1 [CBK263922],12.1186%
7,COC(=O)c1ccsc1NS(=O)(=O)c1ccc(NC(C)=O)cc1 [CBK039063],100.261%
8,CC(C)N(C)CCOc1ncccc1OCCO [CBK039171],100%
9,COc1ccc(C2N(Cc3ccccc3)CCN2Cc2ccccc2)c(OC)c1OC [CBK265220],112.775%
10,COc1ccc(CC(=O)N2CCCC2c2nc3ccccc3[nH]2)cc1 (centres unmarked) [CBK283666],102.312%
11,O=C(Cc1csc(-c2ccc(F)cc2)n1)Nc1ccc(F)cc1 [CBK295177],146.384%
12,O=C1C=C(OCc2ccccc2)CN1 [CBK020360],144.134%
13,Cc1ccc(C(=O)Nc2cccc3cccnc23)cc1Br [CBK265189],115.996%
14,COc1ccc(C(=O)CSc2nnc3n(N)cnn23)cc1 [CBK263201],102.709%
15,FC(F)(F)c1ccnc(OCCNc2ccccc2)c1 [CBK115824],100%
16,COc1ccc(C2(NCc3ccc4c(c3)n(C)c(=O)n4C)CC2)cc1 [CBK282836],103.16%
17,COc1ccc(N(C)C(=O)N[C@@H]2CC[C@@]3(c4ccc(OC)c(OC)c4)CCN(C)[C@H]3C2)cc1 [CBK045653T],110.368%
18,COc1ccc(C(=O)N2CCN(c3ncnc4onc(C)c34)CC2)cc1 [CBK304372],109.452%
19,COc1cccc(CNc2nccnc2-c2ccc(S(C)(=O)=O)cc2)c1OC [CBK037452],116.938%
20,Cc1nn(C)c(Cl)c1S(=O)(=O)Nc1nnc(C(F)(F)F)s1 [CBK062003],130.107%
21,CC1=C(C(=O)N2CCOCC2)C(c2ccc(Cl)cc2)NC(=O)N1c1ccc(C(=O)O)cc1 (centres unmarked) [CBK296999],139.092%
22,C[C@H]1[C@@H]2[C@@H](O)C([C@H](C)C(=O)NC3CC3)CC[C@@]2(C)CC[C@@H]1NC(=O)C1CC1 (some centres unmarked) [CBK289442],110.373%
23,CC(C)(C)C1=CC2=NC3(CCOCC3)[C@@H]3C[C@@H](O)[C@@H](O)[C@@H]3N2O1 [CBK303244],146.818%
24,CCCc1[nH]nc(O)c1CC1CC1 [CBK081129],107.243%
25,N#Cc1ccc(CN2CCN(S(=O)(=O)c3ccc(-c4ccccc4)cc3)CC2)cc1 [CBK062752],105.914%

# 9 compounds out of the list, arranged by molar mass, rising:
row,SMILES,% of control remaining
4,CCCCNc1nccnc1-c1ccccc1 [CBK088477],125.738%
10,COc1ccc(CC(=O)N2CCCC2c2nc3ccccc3[nH]2)cc1 (centres unmarked) [CBK283666],102.312%
13,Cc1ccc(C(=O)Nc2cccc3cccnc23)cc1Br [CBK265189],115.996%
18,COc1ccc(C(=O)N2CCN(c3ncnc4onc(C)c34)CC2)cc1 [CBK304372],109.452%
1,COc1ccc(CNC(=O)CC[C@H]2CNC(=O)[C@H]3NCC[C@H]3N2C)cc1 [CBK289025],130.504%
22,C[C@H]1[C@@H]2[C@@H](O)C([C@H](C)C(=O)NC3CC3)CC[C@@]2(C)CC[C@@H]1NC(=O)C1CC1 (some centres unmarked) [CBK289442],110.373%
25,N#Cc1ccc(CN2CCN(S(=O)(=O)c3ccc(-c4ccccc4)cc3)CC2)cc1 [CBK062752],105.914%
17,COc1ccc(N(C)C(=O)N[C@@H]2CC[C@@]3(c4ccc(OC)c(OC)c4)CCN(C)[C@H]3C2)cc1 [CBK045653T],110.368%
21,CC1=C(C(=O)N2CCOCC2)C(c2ccc(Cl)cc2)NC(=O)N1c1ccc(C(=O)O)cc1 (centres unmarked) [CBK296999],139.092%

# (further entries)

row,SMILES,% of control remaining
1,CC1(C)CC(NC(=O)c2cccc([N+](=O)[O-])c2)CC(C)(C)N1 [CBK262952C],131.114%
2,O=C(Cc1ccsc1)N1CCC(c2cc3cccnc3[nH]2)CC1 [CBK285000],114.774%
3,CN(C)c1cccc(-c2nc(-c3occc3C=O)cnc2N)c1 [CBK064001],134.2%
4,O=C(Nc1ccccn1)c1cc(O)c(OCc2ccccc2)cn1 [CBK287989],100.045%
5,O=C(O)CCC1C(=O)CCC1(C(=O)O)c1ccccc1 (centres unmarked) [CBK287208],99.739%
6,CC(C)c1ccc(CN2CCN(c3nccnc3NS(C)(=O)=O)CC2)cc1 [CBK084271],106.162%
7,CN1CCN(CCC(=O)N/N=C/c2ccccn2)CC1 [CBK261501],98.4108%
8,O=C(O)CCSc1c[nH]c2ccccc12 [CBK262319],126.548%
9,Nc1ncc(-c2cccc(O)c2)nc1-c1ccc(CCC(=O)O)cc1 [CBK064135],102.94%
10,COC(=O)c1ccc(Cn2cc(NC(=O)NCCc3cccs3)cn2)o1 [CBK043825],131.467%
11,CC(=O)Nc1ccc(S(=O)(=O)Nc2ccc(S(=O)(=O)Nc3cc(C)ccc3C)cc2)cc1 [CBK264745],100%
12,O=C(c1ccsc1)N1CCC2(CC1)CN(Cc1ccccc1)CC(c1ccccc1)O2 (centres unmarked) [CBK286438],44.4862%
13,O=C(NCc1ccco1)c1nccnc1-c1ccc(COc2ccc3c(c2)CCCC3)cc1 [CBK050851],144.124%
14,CCCNC(=O)N1CCC(n2c(C)nc3cccnc32)CC1 [CBK282292],120.385%
15,O=C(CN1CCC(O)(Cn2cnc3ccccc32)CC1)c1ccc(-c2ccccc2)cc1 [CBK286306],126.042%
16,COc1ccccc1-c1ncc(OCC(F)(F)F)nc1NC(=O)C1CC1 [CBK145275],114.608%
17,CCc1ccc(C(=O)NC(Cc2c[nH]c3ccccc23)C(=O)O)cc1 (centres unmarked) [CBK269556],107.334%
18,C=CCOC(=O)N1CCC(C(=O)N(C)C(c2cccc(OC)c2)c2ccccn2)CC1 (centres unmarked) [CBK060244],142.797%
19,O=C(c1ccccc1)N1C[C@@H](c2ccsc2)[C@@H]2CN(Cc3ccc(Cl)cc3)CC[C@@H]21 [CBK285615],64.0237%
20,CC(=O)NCCC(CN1CCOCC1)([N+](=O)[O-])[N+](=O)[O-] [CBK261338],100%
21,O=C(CCn1c(C(F)(F)F)cc2cccnc21)NCc1cccnc1 [CBK284865],121.877%
22,CN1CCN(c2ccc(-c3cccc(N(C)C)c3)cn2)CC1 [CBK037621],149.748%
23,CC[C@H]1CCCCN1C(=O)c1sc2nc(C(C)=O)ccc2c1Cl [CBK091046],99.9157%
24,O=C(CN(c1cc(Cl)ccc1Cl)S(=O)(=O)c1ccccc1)Nc1cccnc1 [CBK268708],111.702%
25,Cc1ccc2[nH]c(Cc3ccc(NC(=O)c4cccc5c(=O)cc(C)[nH]c45)cc3)nc2c1 [CBK285814],129.206%
